No constants are given. Whether binding was seen depends on the method and setting. For some assays here: In cells and extracts the contact can be indirect. Some results given as binding are weak or reduced against the parent protein; the word gives no strength.
Columns and labels:
[1] = molecular target: FLAG-tagged Shootin1 (FLAG-SHTN1, long isoform SHTN1L) (UniProt Q8K2Q9); assay: native gel or EMSA; nondenaturing native PAGE, 8% gel, running buffer 25 mM Tris, 192 mM glycine pH 7.5, no SDS or reducing agents, samples not heated, 200 V for 4 h on ice, Coomassie staining; both purified
[2] = molecular target: EGFP-fused full-length Shootin1 (EGFP-SHTN1) (UniProt Q8K2Q9); assay: co-IP; Neuro-2a cells coexpressing EGFP- and FLAG-tagged Shootin1 variants; lysis in 50 mM Tris-HCl pH 7.4, 150 mM NaCl, 0.5% Triton X-100; GFP-Trap magnetic beads 1 h at 4 °C; washes with 300 mM NaCl; anti-FLAG immunoblot

Chains of the proteins cited; added tags and fusions are not shown.
UniProt Q8K2Q9: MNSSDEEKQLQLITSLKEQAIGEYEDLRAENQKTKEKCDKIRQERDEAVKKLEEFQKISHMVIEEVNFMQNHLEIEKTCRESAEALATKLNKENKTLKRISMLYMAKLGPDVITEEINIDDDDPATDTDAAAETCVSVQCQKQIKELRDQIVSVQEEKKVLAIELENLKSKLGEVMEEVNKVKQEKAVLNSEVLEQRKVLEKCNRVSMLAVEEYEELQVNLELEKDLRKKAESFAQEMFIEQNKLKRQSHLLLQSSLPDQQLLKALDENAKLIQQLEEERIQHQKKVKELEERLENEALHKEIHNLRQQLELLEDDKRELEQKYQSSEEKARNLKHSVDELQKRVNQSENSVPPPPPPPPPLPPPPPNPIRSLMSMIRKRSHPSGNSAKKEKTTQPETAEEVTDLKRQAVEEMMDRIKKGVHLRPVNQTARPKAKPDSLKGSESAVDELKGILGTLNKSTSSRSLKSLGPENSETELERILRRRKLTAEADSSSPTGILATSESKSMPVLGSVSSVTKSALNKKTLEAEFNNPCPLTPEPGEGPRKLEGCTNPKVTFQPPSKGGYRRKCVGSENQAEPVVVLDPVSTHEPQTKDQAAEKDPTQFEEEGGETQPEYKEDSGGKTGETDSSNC

## FLAG-tagged Shootin1 (FLAG-SHTN1, long isoform SHTN1L) (from UniProt Q8K2Q9 1-631)
[1]
  binding: binds
[2]
  binding: binds

From article PMC12768439
